Assay results reported in article PMC8468827.
Results are given in words; binding and its absence hold for the method and conditions named. Binding seen in cells or lysates may run through a third protein. Some results given as binding are weak or reduced against the parent protein; the word gives no strength. For some of these results: Tags and fused reporters may be left off the sequences shown.

Sequences of proteins named here, by UniProt entry; tags and fusion partners are left off.
UniProt O18338: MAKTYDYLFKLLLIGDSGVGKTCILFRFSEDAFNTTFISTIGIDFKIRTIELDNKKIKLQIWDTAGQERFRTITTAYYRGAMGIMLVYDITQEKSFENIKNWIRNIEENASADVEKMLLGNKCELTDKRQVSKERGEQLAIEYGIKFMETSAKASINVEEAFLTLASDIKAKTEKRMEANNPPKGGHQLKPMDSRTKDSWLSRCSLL
UniProt Q9VQ93: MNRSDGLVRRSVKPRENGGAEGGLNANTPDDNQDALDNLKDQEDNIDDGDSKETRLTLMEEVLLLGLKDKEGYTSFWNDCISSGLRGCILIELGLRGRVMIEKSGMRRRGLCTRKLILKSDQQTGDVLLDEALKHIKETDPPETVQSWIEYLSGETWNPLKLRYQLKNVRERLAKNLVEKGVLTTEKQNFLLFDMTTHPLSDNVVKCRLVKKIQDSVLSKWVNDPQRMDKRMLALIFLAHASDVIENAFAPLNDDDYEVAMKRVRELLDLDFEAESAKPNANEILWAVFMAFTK
UniProt Q9NFU0: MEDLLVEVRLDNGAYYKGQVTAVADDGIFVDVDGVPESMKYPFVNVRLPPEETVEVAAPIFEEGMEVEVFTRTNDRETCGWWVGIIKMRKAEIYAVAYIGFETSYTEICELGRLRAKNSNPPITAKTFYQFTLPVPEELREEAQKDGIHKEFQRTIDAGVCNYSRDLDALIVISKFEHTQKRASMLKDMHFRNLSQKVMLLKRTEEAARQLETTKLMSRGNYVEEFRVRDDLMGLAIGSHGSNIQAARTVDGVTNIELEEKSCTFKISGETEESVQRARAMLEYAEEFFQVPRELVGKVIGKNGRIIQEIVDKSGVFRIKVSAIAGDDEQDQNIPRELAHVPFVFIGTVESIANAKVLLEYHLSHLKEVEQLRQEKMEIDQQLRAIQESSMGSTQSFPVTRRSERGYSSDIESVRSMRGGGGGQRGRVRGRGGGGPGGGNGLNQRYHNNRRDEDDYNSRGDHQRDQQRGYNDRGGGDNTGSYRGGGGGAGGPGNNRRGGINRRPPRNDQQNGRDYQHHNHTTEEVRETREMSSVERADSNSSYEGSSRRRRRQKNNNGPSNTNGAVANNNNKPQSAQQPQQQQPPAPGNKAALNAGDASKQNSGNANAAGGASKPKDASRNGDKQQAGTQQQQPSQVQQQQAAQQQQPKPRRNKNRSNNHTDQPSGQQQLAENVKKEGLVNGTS

What was measured:
[1] = target: T1, RFP–βCOP (Drosophila melanogaster) (UniProt P45437); experiment: co-IP; RFP-trap beads on lysate of 400 adult testes expressing RFP-tagged proteins; lysis buffer 25 mM Tris-HCl pH 7.4, 150 mM NaCl, 1 mM EDTA, 1% NP-40; blotted for RFP and dGOLPH3
T1 sequence: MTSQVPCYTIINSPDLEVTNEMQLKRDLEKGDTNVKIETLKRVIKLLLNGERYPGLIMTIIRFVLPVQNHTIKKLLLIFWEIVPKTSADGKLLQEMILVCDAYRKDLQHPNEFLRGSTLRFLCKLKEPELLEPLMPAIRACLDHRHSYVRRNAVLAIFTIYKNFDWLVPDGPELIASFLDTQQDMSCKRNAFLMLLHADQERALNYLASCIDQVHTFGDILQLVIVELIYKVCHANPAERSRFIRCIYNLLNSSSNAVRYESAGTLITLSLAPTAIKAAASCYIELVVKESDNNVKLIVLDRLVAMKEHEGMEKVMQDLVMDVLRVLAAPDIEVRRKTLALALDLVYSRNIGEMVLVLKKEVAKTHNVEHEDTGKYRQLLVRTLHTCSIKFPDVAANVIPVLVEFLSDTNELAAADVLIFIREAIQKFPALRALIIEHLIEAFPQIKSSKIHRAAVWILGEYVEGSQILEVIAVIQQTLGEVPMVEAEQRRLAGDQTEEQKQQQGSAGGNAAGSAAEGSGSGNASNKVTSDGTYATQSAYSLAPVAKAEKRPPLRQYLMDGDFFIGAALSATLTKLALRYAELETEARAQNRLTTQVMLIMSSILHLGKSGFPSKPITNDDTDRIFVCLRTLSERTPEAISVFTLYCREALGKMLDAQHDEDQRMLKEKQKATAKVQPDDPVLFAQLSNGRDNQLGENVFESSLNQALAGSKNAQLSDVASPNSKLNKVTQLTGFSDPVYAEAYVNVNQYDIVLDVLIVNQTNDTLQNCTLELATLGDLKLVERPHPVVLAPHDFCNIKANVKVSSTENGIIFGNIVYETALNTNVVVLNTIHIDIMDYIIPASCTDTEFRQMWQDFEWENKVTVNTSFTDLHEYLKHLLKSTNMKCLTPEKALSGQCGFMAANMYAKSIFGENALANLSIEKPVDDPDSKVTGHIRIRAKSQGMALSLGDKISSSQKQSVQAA

[2] = target: T2, GFP tagged Sec22 (Drosophila melanogaster) (UniProt M9PGI6); experiment: co-IP; GFP-trap beads on lysate of 400 adult testes expressing GFP- or YFP-tagged proteins; lysis buffer 25 mM Tris-HCl pH 7.4, 150 mM NaCl, 1 mM EDTA, 1% NP-40; blotted for GFP/YFP and GOLPH3
T2 sequence: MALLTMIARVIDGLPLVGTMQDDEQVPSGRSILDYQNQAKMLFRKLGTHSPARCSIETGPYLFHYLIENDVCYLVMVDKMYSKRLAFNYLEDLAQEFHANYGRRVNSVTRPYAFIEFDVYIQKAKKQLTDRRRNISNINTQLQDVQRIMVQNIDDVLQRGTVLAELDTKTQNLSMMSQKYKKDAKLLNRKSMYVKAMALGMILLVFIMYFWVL

[3] = target: T3, YFP-Rab10 (Drosophila melanogaster) (UniProt O15971); experiment: as above
T3 sequence: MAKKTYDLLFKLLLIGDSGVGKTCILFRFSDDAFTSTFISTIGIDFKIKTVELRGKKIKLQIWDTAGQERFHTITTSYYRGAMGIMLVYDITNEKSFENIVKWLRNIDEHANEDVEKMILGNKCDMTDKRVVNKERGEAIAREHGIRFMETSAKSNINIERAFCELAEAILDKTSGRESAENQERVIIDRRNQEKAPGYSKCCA

[4] = target: YFP-Rab8 (Drosophila melanogaster) (UniProt O18338); experiment: as above
[5] = target: T4, dAtx2-HA (Drosophila melanogaster) (UniProt Q8SWR8); experiment: proximity ligation; Duolink PLA on formaldehyde-fixed larval testes (premeiotic and dividing spermatocytes); one primary antibody omitted as negative control
T4 sequence: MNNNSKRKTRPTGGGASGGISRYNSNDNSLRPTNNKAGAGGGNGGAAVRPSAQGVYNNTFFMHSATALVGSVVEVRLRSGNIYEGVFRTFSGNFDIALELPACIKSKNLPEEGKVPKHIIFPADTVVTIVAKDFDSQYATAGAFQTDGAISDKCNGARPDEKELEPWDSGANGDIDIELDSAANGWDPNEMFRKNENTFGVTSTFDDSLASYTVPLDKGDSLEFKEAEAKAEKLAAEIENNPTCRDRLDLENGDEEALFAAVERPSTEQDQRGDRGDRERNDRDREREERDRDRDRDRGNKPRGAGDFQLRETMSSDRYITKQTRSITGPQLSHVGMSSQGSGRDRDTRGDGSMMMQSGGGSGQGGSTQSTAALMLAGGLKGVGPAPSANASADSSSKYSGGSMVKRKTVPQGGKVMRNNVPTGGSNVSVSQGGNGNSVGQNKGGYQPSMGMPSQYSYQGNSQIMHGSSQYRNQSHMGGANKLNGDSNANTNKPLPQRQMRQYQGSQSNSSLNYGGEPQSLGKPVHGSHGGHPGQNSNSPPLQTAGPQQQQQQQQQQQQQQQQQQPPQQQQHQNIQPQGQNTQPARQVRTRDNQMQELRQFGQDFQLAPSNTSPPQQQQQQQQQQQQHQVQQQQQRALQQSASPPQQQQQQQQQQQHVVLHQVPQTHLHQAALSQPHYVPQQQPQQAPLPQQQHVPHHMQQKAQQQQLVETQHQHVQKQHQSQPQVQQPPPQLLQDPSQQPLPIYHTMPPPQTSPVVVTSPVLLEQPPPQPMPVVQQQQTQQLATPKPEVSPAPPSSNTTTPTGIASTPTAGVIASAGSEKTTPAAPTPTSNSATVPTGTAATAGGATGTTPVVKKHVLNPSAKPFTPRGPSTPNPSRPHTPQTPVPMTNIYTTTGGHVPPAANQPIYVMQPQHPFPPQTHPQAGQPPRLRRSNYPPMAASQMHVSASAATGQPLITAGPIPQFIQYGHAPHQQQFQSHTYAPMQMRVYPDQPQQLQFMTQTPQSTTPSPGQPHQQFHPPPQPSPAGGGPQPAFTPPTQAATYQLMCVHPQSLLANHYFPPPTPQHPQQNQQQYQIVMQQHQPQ

[6] = target: dGOLPH3 (Drosophila melanogaster (endogenous in testes)) (UniProt Q9VQ93); experiment: as above
[7] = target: dGOLPH3 (Drosophila melanogaster (endogenous in testes)) (UniProt Q9VQ93); experiment: co-IP; extract of 400 adult testes expressing dAtx2-HA, rabbit anti-GOLPH3 antibody (pre-immune serum as control) and Protein A-Agarose; blotted for dGOLPH3, dFmr1 and HA

Measured: binding

dGOLPH3 (from UniProt Q9VQ93 1-294)
binds: [1] | [2] | [3] | [4]

dFmr1 (from UniProt Q9NFU0 1-684)
binds: [5] | [6] | [7]
